# Data reported in article doi:10.1101/2020.10.20.346858.
# Amino acid sequences for entries named in this document (tags omitted). A change or cut given only in a name is not applied to a line headed by its entry. Chains listed by the source or under a name are the forms on record and can include a tag or linker.
# UniProt Q05639: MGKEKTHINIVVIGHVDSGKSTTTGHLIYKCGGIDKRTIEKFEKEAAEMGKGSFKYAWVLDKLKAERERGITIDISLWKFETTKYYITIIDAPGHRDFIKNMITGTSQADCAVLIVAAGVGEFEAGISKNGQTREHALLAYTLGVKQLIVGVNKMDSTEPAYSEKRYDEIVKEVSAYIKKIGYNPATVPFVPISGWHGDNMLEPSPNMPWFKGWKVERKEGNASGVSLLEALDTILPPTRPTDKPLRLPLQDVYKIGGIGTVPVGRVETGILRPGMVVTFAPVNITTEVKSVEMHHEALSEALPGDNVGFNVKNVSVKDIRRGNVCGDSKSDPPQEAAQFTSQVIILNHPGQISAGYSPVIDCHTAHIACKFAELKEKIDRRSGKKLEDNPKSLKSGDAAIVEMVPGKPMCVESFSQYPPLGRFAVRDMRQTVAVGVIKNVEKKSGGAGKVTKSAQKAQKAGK
# FLAG-eEF1A2 SE (Q05639, form named): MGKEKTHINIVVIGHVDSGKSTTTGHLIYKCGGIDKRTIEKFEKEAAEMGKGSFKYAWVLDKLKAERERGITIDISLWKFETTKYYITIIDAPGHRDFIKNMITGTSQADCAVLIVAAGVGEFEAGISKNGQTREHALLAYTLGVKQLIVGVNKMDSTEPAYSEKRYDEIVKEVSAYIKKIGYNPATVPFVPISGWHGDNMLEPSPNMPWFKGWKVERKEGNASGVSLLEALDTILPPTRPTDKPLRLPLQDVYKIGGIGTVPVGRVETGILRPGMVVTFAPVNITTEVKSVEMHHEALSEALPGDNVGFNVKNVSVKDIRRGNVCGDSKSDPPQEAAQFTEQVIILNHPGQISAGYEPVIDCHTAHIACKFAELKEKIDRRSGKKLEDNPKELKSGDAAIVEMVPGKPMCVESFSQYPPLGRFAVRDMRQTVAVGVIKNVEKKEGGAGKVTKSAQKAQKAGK
# FLAG-eEF1A2 SA (Q05639, form named): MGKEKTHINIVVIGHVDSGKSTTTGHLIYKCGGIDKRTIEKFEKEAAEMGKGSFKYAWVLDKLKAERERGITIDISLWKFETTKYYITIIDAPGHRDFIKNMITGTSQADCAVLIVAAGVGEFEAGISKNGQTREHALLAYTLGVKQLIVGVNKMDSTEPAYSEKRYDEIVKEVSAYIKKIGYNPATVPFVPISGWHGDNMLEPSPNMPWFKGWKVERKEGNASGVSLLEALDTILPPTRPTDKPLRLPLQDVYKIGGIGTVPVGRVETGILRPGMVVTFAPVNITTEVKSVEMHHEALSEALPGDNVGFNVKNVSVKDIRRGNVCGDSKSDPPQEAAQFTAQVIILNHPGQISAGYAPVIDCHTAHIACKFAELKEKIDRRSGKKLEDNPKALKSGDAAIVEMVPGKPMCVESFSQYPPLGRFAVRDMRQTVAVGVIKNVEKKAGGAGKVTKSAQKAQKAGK
# UniProt P47756: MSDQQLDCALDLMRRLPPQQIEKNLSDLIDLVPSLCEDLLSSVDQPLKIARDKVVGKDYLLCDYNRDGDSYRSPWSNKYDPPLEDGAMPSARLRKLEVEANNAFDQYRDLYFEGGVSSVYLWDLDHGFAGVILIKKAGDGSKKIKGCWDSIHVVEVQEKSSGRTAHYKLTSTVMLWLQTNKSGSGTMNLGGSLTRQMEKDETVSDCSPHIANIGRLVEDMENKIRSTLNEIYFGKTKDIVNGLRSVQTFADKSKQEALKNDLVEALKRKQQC
# UniProt P61586: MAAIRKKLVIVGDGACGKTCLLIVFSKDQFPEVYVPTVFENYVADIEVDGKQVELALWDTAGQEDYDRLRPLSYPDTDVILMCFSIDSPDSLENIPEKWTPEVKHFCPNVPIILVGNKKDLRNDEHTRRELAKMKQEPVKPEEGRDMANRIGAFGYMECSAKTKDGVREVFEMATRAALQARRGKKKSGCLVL
# UniProt Q8TF72: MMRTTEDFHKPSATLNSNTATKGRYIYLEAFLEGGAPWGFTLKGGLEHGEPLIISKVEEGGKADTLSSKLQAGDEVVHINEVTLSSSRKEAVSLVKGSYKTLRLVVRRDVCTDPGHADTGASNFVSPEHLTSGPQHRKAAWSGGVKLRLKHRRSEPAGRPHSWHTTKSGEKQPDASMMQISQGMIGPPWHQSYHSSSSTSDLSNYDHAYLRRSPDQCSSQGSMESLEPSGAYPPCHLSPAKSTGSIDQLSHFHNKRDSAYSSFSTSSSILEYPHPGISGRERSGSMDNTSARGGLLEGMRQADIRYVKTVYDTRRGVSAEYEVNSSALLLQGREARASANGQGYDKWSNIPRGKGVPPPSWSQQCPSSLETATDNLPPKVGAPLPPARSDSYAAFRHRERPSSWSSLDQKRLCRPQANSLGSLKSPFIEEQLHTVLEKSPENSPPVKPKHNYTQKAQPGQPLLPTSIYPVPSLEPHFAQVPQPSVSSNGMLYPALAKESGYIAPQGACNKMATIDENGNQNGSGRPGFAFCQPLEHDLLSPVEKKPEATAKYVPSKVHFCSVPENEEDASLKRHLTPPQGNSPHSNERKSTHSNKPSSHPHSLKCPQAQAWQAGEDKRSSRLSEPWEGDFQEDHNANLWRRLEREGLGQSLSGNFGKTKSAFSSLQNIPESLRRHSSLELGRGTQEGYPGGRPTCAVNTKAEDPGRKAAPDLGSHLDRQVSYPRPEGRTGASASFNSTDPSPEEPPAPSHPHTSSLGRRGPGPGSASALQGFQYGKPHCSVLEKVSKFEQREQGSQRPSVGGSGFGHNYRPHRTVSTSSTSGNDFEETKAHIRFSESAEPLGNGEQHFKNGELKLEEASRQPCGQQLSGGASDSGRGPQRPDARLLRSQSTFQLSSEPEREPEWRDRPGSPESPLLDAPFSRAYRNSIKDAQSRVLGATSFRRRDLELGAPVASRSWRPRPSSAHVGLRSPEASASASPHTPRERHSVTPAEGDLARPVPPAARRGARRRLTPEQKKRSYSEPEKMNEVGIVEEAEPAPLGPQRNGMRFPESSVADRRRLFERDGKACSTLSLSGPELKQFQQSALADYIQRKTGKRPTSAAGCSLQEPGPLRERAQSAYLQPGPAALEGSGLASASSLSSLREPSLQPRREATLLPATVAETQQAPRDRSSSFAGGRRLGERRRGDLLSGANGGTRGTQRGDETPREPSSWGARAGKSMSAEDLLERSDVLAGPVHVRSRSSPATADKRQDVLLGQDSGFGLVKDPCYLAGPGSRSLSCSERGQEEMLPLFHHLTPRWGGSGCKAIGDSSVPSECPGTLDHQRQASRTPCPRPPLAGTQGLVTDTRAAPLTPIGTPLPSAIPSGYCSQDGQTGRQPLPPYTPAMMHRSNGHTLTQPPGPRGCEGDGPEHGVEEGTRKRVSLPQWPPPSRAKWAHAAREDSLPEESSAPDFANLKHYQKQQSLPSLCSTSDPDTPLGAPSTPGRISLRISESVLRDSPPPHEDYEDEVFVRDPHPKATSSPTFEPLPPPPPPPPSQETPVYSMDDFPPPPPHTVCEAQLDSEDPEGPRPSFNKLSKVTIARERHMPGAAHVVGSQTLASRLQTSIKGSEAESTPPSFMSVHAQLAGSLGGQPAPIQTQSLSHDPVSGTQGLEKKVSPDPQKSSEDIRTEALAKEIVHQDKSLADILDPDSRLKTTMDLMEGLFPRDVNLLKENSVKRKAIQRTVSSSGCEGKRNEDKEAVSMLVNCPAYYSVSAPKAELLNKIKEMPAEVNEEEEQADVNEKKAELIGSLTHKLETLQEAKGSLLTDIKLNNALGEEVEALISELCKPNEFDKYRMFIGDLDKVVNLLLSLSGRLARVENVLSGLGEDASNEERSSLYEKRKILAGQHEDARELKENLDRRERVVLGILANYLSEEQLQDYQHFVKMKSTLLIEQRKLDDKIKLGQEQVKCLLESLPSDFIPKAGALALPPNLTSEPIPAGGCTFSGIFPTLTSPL
# UniProt P68104: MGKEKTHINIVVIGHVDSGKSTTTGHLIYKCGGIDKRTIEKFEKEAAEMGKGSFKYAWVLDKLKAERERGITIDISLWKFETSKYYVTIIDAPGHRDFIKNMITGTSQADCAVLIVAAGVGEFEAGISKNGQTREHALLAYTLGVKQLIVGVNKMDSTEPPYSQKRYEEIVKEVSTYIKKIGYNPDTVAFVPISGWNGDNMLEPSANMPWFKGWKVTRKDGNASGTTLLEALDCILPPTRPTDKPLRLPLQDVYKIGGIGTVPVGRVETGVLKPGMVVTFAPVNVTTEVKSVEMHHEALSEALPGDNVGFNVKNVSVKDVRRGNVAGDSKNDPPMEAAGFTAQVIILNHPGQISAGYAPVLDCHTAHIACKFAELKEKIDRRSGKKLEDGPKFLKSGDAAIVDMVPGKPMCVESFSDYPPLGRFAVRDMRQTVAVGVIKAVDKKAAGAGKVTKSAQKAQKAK
# UniProt P29692: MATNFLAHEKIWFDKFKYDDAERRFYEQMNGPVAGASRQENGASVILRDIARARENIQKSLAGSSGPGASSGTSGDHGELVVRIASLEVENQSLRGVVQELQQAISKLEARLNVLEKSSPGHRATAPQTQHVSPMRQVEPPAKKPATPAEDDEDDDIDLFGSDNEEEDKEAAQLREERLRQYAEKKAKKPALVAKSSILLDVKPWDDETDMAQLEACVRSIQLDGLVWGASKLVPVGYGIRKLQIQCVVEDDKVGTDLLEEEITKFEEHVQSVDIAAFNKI
# UniProt P26641: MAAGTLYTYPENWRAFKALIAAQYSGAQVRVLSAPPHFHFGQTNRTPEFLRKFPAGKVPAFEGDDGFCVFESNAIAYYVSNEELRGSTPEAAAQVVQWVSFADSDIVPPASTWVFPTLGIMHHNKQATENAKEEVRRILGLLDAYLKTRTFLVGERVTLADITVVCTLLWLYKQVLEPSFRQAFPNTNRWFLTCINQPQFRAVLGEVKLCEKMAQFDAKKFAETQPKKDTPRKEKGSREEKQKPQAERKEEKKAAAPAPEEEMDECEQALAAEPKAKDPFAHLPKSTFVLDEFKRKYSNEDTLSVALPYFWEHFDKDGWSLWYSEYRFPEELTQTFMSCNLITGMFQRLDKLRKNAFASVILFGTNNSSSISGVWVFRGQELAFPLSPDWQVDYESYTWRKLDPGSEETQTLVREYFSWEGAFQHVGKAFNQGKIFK
# UniProt O43707: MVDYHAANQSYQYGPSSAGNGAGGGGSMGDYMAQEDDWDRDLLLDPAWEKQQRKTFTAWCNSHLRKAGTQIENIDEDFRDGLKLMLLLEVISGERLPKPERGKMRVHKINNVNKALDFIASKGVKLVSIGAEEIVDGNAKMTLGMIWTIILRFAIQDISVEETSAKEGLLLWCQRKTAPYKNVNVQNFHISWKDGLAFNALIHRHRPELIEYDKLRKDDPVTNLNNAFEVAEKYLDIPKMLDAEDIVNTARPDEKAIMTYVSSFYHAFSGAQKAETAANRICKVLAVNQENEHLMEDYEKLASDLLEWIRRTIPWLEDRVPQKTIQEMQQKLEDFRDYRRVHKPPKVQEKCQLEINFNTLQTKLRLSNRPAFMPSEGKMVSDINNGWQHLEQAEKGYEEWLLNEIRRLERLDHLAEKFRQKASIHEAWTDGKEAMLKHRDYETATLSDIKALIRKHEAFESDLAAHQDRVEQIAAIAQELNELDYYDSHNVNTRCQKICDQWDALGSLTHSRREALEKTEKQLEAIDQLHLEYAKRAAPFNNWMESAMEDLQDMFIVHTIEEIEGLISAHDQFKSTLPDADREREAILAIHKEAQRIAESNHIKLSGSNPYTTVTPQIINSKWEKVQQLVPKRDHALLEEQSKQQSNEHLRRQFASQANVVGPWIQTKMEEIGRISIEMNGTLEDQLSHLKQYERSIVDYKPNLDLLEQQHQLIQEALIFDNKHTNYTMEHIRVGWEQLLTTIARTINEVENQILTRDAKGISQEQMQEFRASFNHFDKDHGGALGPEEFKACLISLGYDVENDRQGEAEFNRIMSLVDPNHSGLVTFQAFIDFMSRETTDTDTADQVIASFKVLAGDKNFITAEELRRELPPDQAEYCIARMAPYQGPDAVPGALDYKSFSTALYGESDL
# No constants are given. Whether binding was seen depends on the method and setting. Binding seen in cells or lysates may run through a third protein. A yes stands for co-enrichment or nearness to the bait. Other partners may have been found.
# What was measured:
# [1] = molecular target: FLAG-eEF1A2 SE (phosphomimetic mutant) (UniProt Q05639); assay: affinity purification with mass spectrometry
# [2] = molecular target: FLAG-eEF1A2 SA (phosphoablated mutant) (UniProt Q05639); assay: affinity purification with mass spectrometry
Molecule,binding [1],binding [2]
F-actin-capping β (from UniProt P47756 1-272),binds,
Filamin-B (from UniProt O75369 1-2602),binds,
RhoA (from UniProt P61586 1-193),binds,
Shroom3 (from UniProt Q8TF72 1-1996),binds,
eEF1A1 (from UniProt P68104 1-462),,binds
eEF1D (from UniProt P29692 1-281),,binds
eEF1G (from UniProt P26641 1-437),,binds
α-actinin-4 (from UniProt O43707 1-911),binds,
"Valyl-tRNA synthetase 1 (protein, UniProt P26640 1-1264) MSTLYVSPHPDAFPSLRALIAARYGEAGEGPGWGGAHPRICLQPPPTSRTPFPPPRLPALEQGPGGLWVWGATAVAQLLWPAGLGGPGGSRAAVLVQQWVSYADTELIPAACGATLPALGLRSSAQDPQAVLGALGRALSPLEEWLRLHTYLAGEAPTLADLAAVTALLLPFRYVLDPPARRIWNNVTRWFVTCVRQPEFRAVLGEVVLYSGARPLSHQPGPEAPALPKTAAQLKKEAKKREKLEKFQQKQKIQQQQPPPGEKKPKPEKREKRDPGVITYDLPTPPGEKKDVSGPMPDSYSPRYVEAAWYPWWEQQGFFKPEYGRPNVSAANPRGVFMMCIPPPNVTGSLHLGHALTNAIQDSLTRWHRMRGETTLWNPGCDHAGIATQVVVEKKLWREQGLSRHQLGREAFLQEVWKWKEEKGDRIYHQLKKLGSSLDWDRACFTMDPKLSAAVTEAFVRLHEEGIIYRSTRLVNWSCTLNSAISDIEVDKKELTGRTLLSVPGYKEKVEFGVLVSFAYKVQGSDSDEEVVVATTRIETMLGDVAVAVHPKDTRYQHLKGKNVIHPFLSRSLPIVFDEFVDMDFGTGAVKITPAHDQNDYEVGQRHGLEAISIMDSRGALINVPPPFLGLPRFEARKAVLVALKERGLFRGIEDNPMVVPLCNRSKDVVEPLLRPQWYVRCGEMAQAASAAVTRGDLRILPEAHQRTWHAWMDNIREWCISRQLWWGHRIPAYFVTVSDPAVPPGEDPDGRYWVSGRNEAEAREKAAKEFGVSPDKISLQQDEDVLDTWFSSGLFPLSILGWPNQSEDLSVFYPGTLLETGHDILFFWVARMVMLGLKLTGRLPFREVYLHAIVRDAHGRKMSKSLGNVIDPLDVIYGISLQGLHNQLLNSNLDPSEVEKAKEGQKADFPAGIPECGTDALRFGLCAYMSQGRDINLDVNRILGYRHFCNKLWNATKFALRGLGKGFVPSPTSQPGGHESLVDRWIRSRLTEAVRLSNQGFQAYDFPAVTTAQYSFWLYELCDVYLECLKPVLNGVDQVAAECARQTLYTCLDVGLRLLSPFMPFVTEELFQRLPRRMPQAPPSLCVTPYPEPSECSWKDPEAEAALELALSITRAVRSLRADYNLTRIRPDCFLEVADEATGALASAVSGYVQALASAGVVAVLALGAPAPQGCAVALASDRCSIHLQLQGLVDPARELGKLQAKRVEAQRQAQRLRERRAASGYPVKVPLEVQEADEAKLQQTEAELRKVDEAIALFQKML",,binds
"eEF1B2 (endogenous) (protein, UniProt P24534 1-225) MGFGDLKSPAGLQVLNDYLADKSYIEGYVPSQADVAVFEAVSSPPPADLCHALRWYNHIKSYEKEKASLPGVKKALGKYGPADVEDTTGSGATDSKDDDDIDLFGSDDEEESEEAKRLREERLAQYESKKAKKPALVAKSSILLDVKPWDDETDMAKLEECVRSIQADGLVWGSSKLVPVGYGIKKLQIQCVVEDDKVGTDMLEEQITAFEDYVQSMDVAAFNKI",,binds
"Cysteinyl-tRNA synthetase (protein, UniProt P49589 1-748) MADSSGQQGKGRRVQPQWSPPAGTQPCRLHLYNSLTRNKEVFIPQDGKKVTWYCCGPTVYDASHMGHARSYISFDILRRVLKDYFKFDVFYCMNITDIDDKIIKRARQNHLFEQYREKRPEAAQLLEDVQAALKPFSVKLNETTDPDKKQMLERIQHAVQLATEPLEKAVQSRLTGEEVNSCVEVLLEEAKDLLSDWLDSTLGCDVTDNSIFSKLPKFWEGDFHRDMEALNVLPPDVLTRVSEYVPEIVNFVQKIVDNGYGYVSNGSVYFDTAKFASSEKHSYGKLVPEAVGDQKALQEGEGDLSISADRLSEKRSPNDFALWKASKPGEPSWPCPWGKGRPGWHIECSAMAGTLLGASMDIHGGGFDLRFPHHDNELAQSEAYFENDCWVRYFLHTGHLTIAGCKMSKSLKNFITIKDALKKHSARQLRLAFLMHSWKDTLDYSSNTMESALQYEKFLNEFFLNVKDILRAPVDITGQFEKWGEEEAELNKNFYDKKTAIHKALCDNVDTRTVMEEMRALVSQCNLYMAARKAVRKRPNQALLENIALYLTHMLKIFGAVEEDSSLGFPVGGPGTSLSLEATVMPYLQVLSEFREGVRKIAREQKVPEILQLSDALRDNILPELGVRFEDHEGLPTVVKLVDRNTLLKEREEKRRVEEEKRKKKEEAARRKQEQEAAKLAKMKIPPSEMFLSETDKYSKFDENGLPTHDMEGKELSKGQAKKLKKLFEAQEKLYKEYLQMAQNGSFQ",,binds
